Measurements from PMC7926352, “Synthesis, Characterization and In Vitro Evaluation of Novel 5-Ene-thiazolo[3,2-b][1,2,4]triazole-6(5H)-ones as Possible Anticancer Agents” (Molecules, 2021).

Columns and labels:
DU-145 = details: DU-145, Prostate Cancer
NCI-H522 = details: NCI-H522, NSCLC
Leukemia cell lines = details: Leukemia subpanel
HCT-15 = details: HCT-15, Colon cancer
COLO 205 = format: cell-based; details: COLO 205, Colon cancer
UACC-62 = details: UACC-62, Melanoma
RXF 393 = details: RXF 393, Renal Cancer
SK-MEL-28 = details: SK-MEL-28, Melanoma
Melanoma cell lines = details: Melanoma subpanel
Breast Cancer cell lines = details: Breast Cancer subpanel
MOLT-4 = details: MOLT-4, Leukemia
MALME-3M = details: Melanoma
HT29 = details: HT29, Colon cancer
OVCAR-8 = details: OVCAR-8, Ovarian Cancer
NCI/ADR-RES = details: Breast Cancer
KM12 = details: KM12, Colon cancer
SF-539 = details: SF-539, CNS Cancer
MDA-MB-435 = details: MDA-MB-435, Breast Cancer
SR = details: Leukemia
U251 = details: U251, CNS Cancer
BT-549 = details: BT-549, Breast Cancer
[1] = test system: Ovarian Cancer cell lines; details: Ovarian Cancer subpanel
A498 = details: A498, Renal Cancer
SK-MEL-2 = details: SK-MEL-2, Melanoma
PC-3 = details: PC-3, Prostate Cancer
SNB-19 = format: cell-based; details: SNB-19, CNS Cancer
HL-60 (TB) = details: Leukemia
SNB-75 = details: SNB-75, CNS Cancer
MCF7 = details: MCF7, Breast Cancer
SK-MEL-5 = details: SK-MEL-5, Melanoma

With `O=C(COc1ccc(Cl)cc1/C=c1\sc2ncnn2c1=O)Nc1ccc(Cl)cc1` [Compound 2h, (Z)-2-(4-Chloro-2-((6-oxothiazolo[3,2-b][1,2,4]triazol-5(6H)-ylidene)methyl)phenoxy)-N-(4-chlorophenyl)acetamide] the “SI (GI50)” value (DU-145) was 2.30, the “SI (LC50)” value (DU-145) was 2.34 and the “SI (TGI)” value (DU-145) was 2.89. For the same molecule, the “SI (GI50)” value (NCI-H522) was 1.12, the “SI (LC50)” value (NCI-H522) was 0.98 and the “SI (TGI)” value (NCI-H522) was 1.29. The “SI (GI50)” value (Leukemia cell lines) was 1.84, the “SI (LC50)” value (Leukemia cell lines) was 1.39 and the “SI (TGI)” value (Leukemia cell lines) was 1.88. For the same molecule, the “SI (GI50)” value (HCT-15) was 0.38, the “SI (LC50)” value (HCT-15) was 0.81 and the “SI (TGI)” value (HCT-15) was 0.60. For the same molecule, the “SI (GI50)” value (COLO 205) was 0.47, the “SI (LC50)” value (COLO 205) was 0.83 and the “SI (TGI)” value (COLO 205) was 0.65. The “SI (GI50)” value (UACC-62) was 1.32, the “SI (LC50)” value (UACC-62) was 0.97 and the “SI (TGI)” value (UACC-62) was 0.87. The “SI (GI50)” value (RXF 393) was 1.86, the “SI (LC50)” value (RXF 393) was 1.02 and the “SI (TGI)” value (RXF 393) was 1.51. The “SI (GI50)” value (SK-MEL-28) was 0.57, the “SI (LC50)” value (SK-MEL-28) was 0.72 and the “SI (TGI)” value (SK-MEL-28) was 0.63. The “SI (GI50)” value (Melanoma cell lines) was 0.74, the “SI (LC50)” value (Melanoma cell lines) was 0.90 and the “SI (TGI)” value (Melanoma cell lines) was 0.78. For the same molecule, the “SI (GI50)” value (Breast Cancer cell lines) was 0.79, the “SI (LC50)” value (Breast Cancer cell lines) was 0.80 and the “SI (TGI)” value (Breast Cancer cell lines) was 0.82. The “SI (GI50)” value (MOLT-4) was 1.86, the “SI (LC50)” value (MOLT-4) was 1.62 and the “SI (TGI)” value (MOLT-4) was 2.57. The “SI (GI50)” value (MALME-3M) was 0.45, the “SI (LC50)” value (MALME-3M) was 0.81 and the “SI (TGI)” value (MALME-3M) was 0.62. The “SI (GI50)” value (HT29) was 0.76, the “SI (LC50)” value (HT29) was 0.95 and the “SI (TGI)” value (HT29) was 0.85. The “SI (GI50)” value (OVCAR-8) was 1.12, the “SI (LC50)” value (OVCAR-8) was 0.89 and the “SI (TGI)” value (OVCAR-8) was 1.00. For the same molecule, the “SI (GI50)” value (NCI/ADR-RES) was 0.29, the “SI (TGI)” value (NCI/ADR-RES) was 0.31 and the “SI (GI50)” value (KM12) was 1.44. The “SI (LC50)” value (KM12) was 1.12, the “SI (TGI)” value (KM12) was 1.18 and the “SI (GI50)” value (SF-539) was 2.00. The “SI (LC50)” value (SF-539) was 2.95, the “SI (TGI)” value (SF-539) was 2.88 and the “SI (GI50)” value (MDA-MB-435) was 1.20. The “SI (LC50)” value (MDA-MB-435) was 1.29, the “SI (TGI)” value (MDA-MB-435) was 1.02 and the “SI (GI50)” value (SR) was 2.56. The “SI (LC50)” value (SR) was 2.13, the “SI (TGI)” value (SR) was 3.16 and the “SI (GI50)” value (U251) was 0.87. The “SI (LC50)” value (U251) was 0.97, the “SI (TGI)” value (U251) was 0.89 and the “SI (GI50)” value (BT-549) was 1.51. For the same molecule, the “SI (LC50)” value (BT-549) was 1.05, the “SI (TGI)” value (BT-549) was 1.51 and the “SI (GI50)” value [1] was 0.44. The “SI (LC50)” value [1] was 0.71, the “SI (TGI)” value [1] was 0.63 and the “SI (GI50)” value (A498) was 0.34. The “SI (LC50)” value (A498) was 0.79, the “SI (GI50)” value (SK-MEL-2) was 0.89 and the “SI (LC50)” value (SK-MEL-2) was 0.95. For the same molecule, the “SI (TGI)” value (SK-MEL-2) was 0.93, the “SI (GI50)” value (PC-3) was 0.93 and the “SI (LC50)” value (PC-3) was 0.81. The “SI (TGI)” value (PC-3) was 0.79, the “SI (GI50)” value (SNB-19) was 0.93 and the “SI (LC50)” value (SNB-19) was 0.97. The “SI (TGI)” value (SNB-19) was 0.89, the “SI (GI50)” value (HL-60 (TB)) was 1.32 and the “SI (LC50)” value (HL-60 (TB)) was 1.00. For the same molecule, the “SI (TGI)” value (HL-60 (TB)) was 1.35, the “SI (GI50)” value (SNB-75) was 1.04 and the “SI (LC50)” value (SNB-75) was 0.43. The “SI (TGI)” value (SNB-75) was 0.83, the “SI (GI50)” value (MCF7) was 4.48 and the “SI (LC50)” value (MCF7) was 1.90. The “SI (TGI)” value (MCF7; listed as 4h) was 3.16, the “SI (GI50)” value (SK-MEL-5) was 1.09 and the “SI (LC50)” value (SK-MEL-5) was 0.97. The “SI (TGI)” value (SK-MEL-5) was 0.87.
